Source: patent publication US20250283871A1, “COMPOSITIONS AND METHODS FOR MODULATING THE INTERACTION BETWEEN SS18-SSX FUSION ONCOPROTEIN AND NUCLEOSOMES” (Dana-Farber Cancer Institute, Inc., priority 2020, published 2025)

B1: AQR (protein, UniProt O60306 1-1485, looked up)
RNA helicase aquarius: MAAPAQPKKIVAPTVSQINAEFVTQLACKYWAPHIKKKSPFDIKVIEDIYEKEIVKSRFAIRKIMLLEFSQYLENYLWMNYSPEVSSKAYLMSICCMVNEKFRENVPAWEIFKKKPDHFPFFFKHILKAALAETDGEFSLHEQTVLLLFLDHCFNSLEVDLIRSQVQQLISLPMWMGLQLARLELELKKTPKLRKFWNLIKKNDEKMDPEAREQAYQERRFLSQLIQKFISVLKSVPLSEPVTMDKVHYCERFIELMIDLEALLPTRRWFNTILDDSHLLVHCYLSNLVRREEDGHLFSQLLDMLKFYTGFEINDQTGNALTENEMTTIHYDRITSLQRAAFAHFPELYDFALSNVAEVDTRESLVKFFGPLSSNTLHQVASYLCLLPTLPKNEDTTFDKEFLLELLVSRHERRISQIQQLNQMPLYPTEKIIWDENIVPTEYYSGEGCLALPKLNLQFLTLHDYLLRNFNLFRLESTYEIRQDIEDSVSRMKPWQSEYGGVVFGGWARMAQPIVAFTVVEVAKPNIGENWPTRVRADVTINLNVRDHIKDEWEGLRKHDVCFLITVRPTKPYGTKFDRRRPFIEQVGLVYVRGCEIQGMLDDKGRVIEDGPEPRPNLRGESRTFRVFLDPNQYQQDMTNTIQNGAEDVYETFNIIMRRKPKENNFKAVLETIRNLMNTDCVVPDWLHDIILGYGDPSSAHYSKMPNQIATLDFNDTFLSIEHLKASFPGHNVKVTVEDPALQIPPFRITFPVRSGKGKKRKDADVEDEDTEEAKTLIVEPHVIPNRGPYPYNQPKRNTIQFTHTQIEAIRAGMQPGLTMVVGPPGTGKTDVAVQIISNIYHNFPEQRTLIVTHSNQALNQLFEKIMALDIDERHLLRLGHGEEELETEKDFSRYGRVNYVLARRIELLEEVKRLQKSLGVPGDASYTCETAGYFFLYQVMSRWEEYISKVKNKGSTLPDVTEVSTFFPFHEYFANAPQPIFKGRSYEEDMEIAEGCFRHIKKIFTQLEEFRASELLRSGLDRSKYLLVKEAKIIAMTCTHAALKRHDLVKLGFKYDNILMEEAAQILEIETFIPLLLQNPQDGFSRLKRWIMIGDHHQLPPVIKNMAFQKYSNMEQSLFTRFVRVGVPTVDLDAQGRARASLCNLYNWRYKNLGNLPHVQLLPEFSTANAGLLYDFQLINVEDFQGVGESEPNPYFYQNLGEAEYVVALFMYMCLLGYPADKISILTTYNGQKHLIRDIINRRCGNNPLIGRPNKVTTVDRFQGQQNDYILLSLVRTRAVGHLRDVRRLVVAMSRARLGLYIFARVSLFQNCFELTPAFSQLTARPLHLHIIPTEPFPTTRKNGERPSHEVQIIKNMPQMANFVYNMYMHLIQTTHHYHQTLLQLPPAMVEEGEEVQNQETELETEEEAMTVQADIIPSPTDTSCRQETPAFQTDTTPSETGATSTPEAIPALSETTPTVVGAVSAPAEANTPQDATSAPEETK
B2: PDS5B (protein, UniProt Q9NTI5 1-1447, looked up)
Sister chromatid cohesion …: MAHSKTRTNDGKITYPPGVKEISDKISKEEMVRRLKMVVKTFMDMDQDSEEEKELYLNLALHLASDFFLKHPDKDVRLLVACCLADIFRIYAPEAPYTSPDKLKDIFMFITRQLKGLEDTKSPQFNRYFYLLENIAWVKSYNICFELEDSNEIFTQLYRTLFSVINNGHNQKVHMHMVDLMSSIICEGDTVSQELLDTVLVNLVPAHKNLNKQAYDLAKALLKRTAQAIEPYITNFFNQVLMLGKTSISDLSEHVFDLILELYNIDSHLLLSVLPQLEFKLKSNDNEERLQVVKLLAKMFGAKDSELASQNKPLWQCYLGRFNDIHVPIRLECVKFASHCLMNHPDLAKDLTEYLKVRSHDPEEAIRHDVIVSIVTAAKKDILLVNDHLLNFVRERTLDKRWRVRKEAMMGLAQIYKKYALQSAAGKDAAKQIAWIKDKLLHIYYQNSIDDRLLVERIFAQYMVPHNLETTERMKCLYYLYATLDLNAVKALNEMWKCQNLLRHQVKDLLDLIKQPKTDASVKAIFSKVMVITRNLPDPGKAQDFMKKFTQVLEDDEKIRKQLEVLVSPTCSCKQAEGCVREITKKLGNPKQPTNPFLEMIKFLLERIAPVHIDTESISALIKQVNKSIDGTADDEDEGVPTDQAIRAGLELLKVLSFTHPISFHSAETFESLLACLKMDDEKVAEAALQIFKNTGSKIEEDFPHIRSALLPVLHHKSKKGPPRQAKYAIHCIHAIFSSKETQFAQIFEPLHKSLDPSNLEHLITPLVTIGHIALLAPDQFAAPLKSLVATFIVKDLLMNDRLPGKKTTKLWVPDEEVSPETMVKIQAIKMMVRWLLGMKNNHSKSGTSTLRLLTTILHSDGDLTEQGKISKPDMSRLRLAAGSAIVKLAQEPCYHEIITLEQYQLCALAINDECYQVRQVFAQKLHKGLSRLRLPLEYMAICALCAKDPVKERRAHARQCLVKNINVRREYLKQHAAVSEKLLSLLPEYVVPYTIHLLAHDPDYVKVQDIEQLKDVKECLWFVLEILMAKNENNSHAFIRKMVENIKQTKDAQGPDDAKMNEKLYTVCDVAMNIIMSKSTTYSLESPKDPVLPARFFTQPDKNFSNTKNYLPPEMKSFFTPGKPKTTNVLGAVNKPLSSAGKQSQTKSSRMETVSNASSSSNPSSPGRIKGRLDSSEMDHSENEDYTMSSPLPGKKSDKRDDSDLVRSELEKPRGRKKTPVTEQEEKLGMDDLTKLVQEQKPKGSQRSRKRGHTASESDEQQWPEEKRLKEDILENEDEQNSPPKKGKRGRPPKPLGGGTPKEEPTMKTSKKGSKKKSGPPAPEEEEEEERQSGNTEQKSKSKQHRVSRRAQQRAESPESSAIESTQSTPQKGRGRPSKTPSPSQPKKNVRVGRSKQAATKENDSSEEVDVFQGSSPVDDIPQEETEEEEVSTVNVRRRSAKRERR
B3: GLYR1 (protein, UniProt Q49A26 1-553, looked up)
Cytokine-like nuclear factor …: MAAVSLRLGDLVWGKLGRYPPWPGKIVNPPKDLKKPRGKKCFFVKFFGTEDHAWIKVEQLKPYHAHKEEMIKINKGKRFQQAVDAVEEFLRRAKGKDQTSSHNSSDDKNRRNSSEERSRPNSGDEKRKLSLSEGKVKKNMGEGKKRVSSGSSERGSKSPLKRAQEQSPRKRGRPPKDEKDLTIPESSTVKGMMAGPMAAFKWQPTASEPVKDADPHFHHFLLSQTEKPAVCYQAITKKLKICEEETGSTSIQAADSTAVNGSITPTDKKIGFLGLGLMGSGIVSNLLKMGHTVTVWNRTAEKCDLFIQEGARLGRTPAEVVSTCDITFACVSDPKAAKDLVLGPSGVLQGIRPGKCYVDMSTVDADTVTELAQVIVSRGGRFLEAPVSGNQQLSNDGMLVILAAGDRGLYEDCSSCFQAMGKTSFFLGEVGNAAKMMLIVNMVQGSFMATIAEGLTLAQVTGQSQQTLLDILNQGQLASIFLDQKCQNILQGNFKPDFYLKYIQKDLRLAIALGDAVNHPTPMAAAANEVYKRAKALDQSDNDMSAVYRAYIH
B4: AATF (protein, UniProt Q9NY61 2-560, looked up)
Protein AATF: AGPQPLALQLEQLLNPRPSEADPEADPEEATAARVIDRFDEGEDGEGDFLVVGSIRKLASASLLDTDKRYCGKTTSRKAWNEDHWEQTLPGSSDEEISDEEGSGDEDSEGLGLEEYDEDDLGAAEEQECGDHRESKKSRSHSAKTPGFSVQSISDFEKFTKGMDDLGSSEEEEDEESGMEEGDDAEDSQGESEEDRAGDRNSEDDGVVMTFSSVKVSEEVEKGRAVKNQIALWDQLLEGRIKLQKALLTTNQLPQPDVFPLFKDKGGPEFSSALKNSHKALKALLRSLVGLQEELLFQYPDTRYLVDGTKPNAGSEEISSEDDELVEEKKQQRRRVPAKRKLEMEDYPSFMAKRFADFTVYRNRTLQKWHDKTKLASGKLGKGFGAFERSILTQIDHILMDKERLLRRTQTKRSVYRVLGKPEPAAQPVPESLPGEPEILPQAPANAHLKDLDEEIFDDDDFYHQLLRELIERKTSSLDPNDQVAMGRQWLAIQKLRSKIHKKVDRKASKGRKLRFHVLSKLLSFMAPIDHTTMNDDARTELYRSLFGQLHPPDEGHGD

System: BAF complex subunits and histone proteins
Test: Mass spectrometry proteomics of purified HA-SS18 WT and HA-SS18-SSX1 complexes (Tables 5A-5E)
Design: species or system human
Details: HEK-293T
[1] = HA-SS18SSX1_CHR_peptides: protein identified in the HA-SS18-SSX1 purification from solubilized chromatin (CHR)
[2] = HA-SS18WT_CHR_peptides: HA-SS18 WT purification from nuclease-treated solubilized chromatin (CHR), label = protein identified
[3] = HA-SS18WT_NE_peptides: proteins co-purified with HA-SS18 WT from nuclear extract (NE)
[4] = HA-SS18SSX1 purification, NE (soluble nuclear extract) fraction, peptides per identified protein
[5] = HA-SS18WT_NE_peptides: HA-SS18 WT complexes purified from nuclear extract (NE), label = protein identified (Gene Symbol)

| Molecule | Total (total peptides) [1] | Unique (unique peptides) [1] | Total (peptides) [2] | Unique (peptides) [2] | Total (peptides) [3] | Unique (peptides) [3] | Total (total peptides) [4] | Unique (unique peptides) [4] | Total (peptides) [5] | Unique (peptides) [5] |
| --- | --- | --- | --- | --- | --- | --- | --- | --- | --- | --- |
| B1 | 14 | 12 | 7 | 6 | 1 | 1 | – | – | – | – |
| B2 | 13 | 13 | 18 | 18 | – | – | 9 | 9 | 5 | 5 |
| B3 | 13 | 11 | 8 | 6 | – | – | 4 | 4 | 3 | 3 |
| B4 | 14 | 10 | 8 | 7 | – | – | – | – | – | – |
